Measurements as given in publication PMC4824078.
The exact form of at least one protein or probe is not confirmed. Results from cells or extracts need not show a direct contact. At least one verdict rests on a figure or table, not on a statement of the authors. Where a protein sequence is shown, tags need not be part of it.

Target: T1, C.Csp231I WT (crude extract) (Citrobacter sp. RFL231) (UniProt Q32WH4)
T1 sequence (looked up, limits assumed): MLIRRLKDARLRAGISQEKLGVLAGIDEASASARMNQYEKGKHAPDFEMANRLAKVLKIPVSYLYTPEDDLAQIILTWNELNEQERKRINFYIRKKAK
Assay: EMSA
Conditions: crude extract 0-30 ug/ml, 1 ug competitor DNA; 50 mM Tris-HCl pH 8.0, 1 mM DTT, 10 mM MgCl2, 22 C, 20 min, 100 nM DNA; 6% native PAGE in 0.5x TBE; protein in a lysate after overexpression; label: 5'-biotin on strand 1

“TAATCACACTAAGGAAAACTTAGTAAAATTGC (double strand) [FBIOT1/BIOT1 32-mer (OL C-box)]”: binds.
